PubChem BioAssay AID652272, Drosophila RNAi Screening Center, 2013
In all, the deposit lists about 21,000 reagents; shown is a random part of those that have a named target and a result. In the full data, 503 (2.4%) got an active call. 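Raw plate light values, not normalised; calls rest on replicate z-scores that were not deposited; hits include reporter decreases as well as increases.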 Names joined by + are all predicted targets of the reagent. Not given: the amount of reagent, the time to read-out.

Screen: 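Genes whose knock-down decreases or increases Hedgehog reporter output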 (primary screen)
Cell system: Drosophila clone 8 (Cl8) cells
Reagent: long dsRNA against Drosophila genes
Measurement: 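Firefly light from a Hedgehog-responsive ptc promoter reporter and Renilla reference light, both read on a plate reader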
Direction: firefly Hh reporter signal: higher = more ptc reporter light; Renilla reference signal: higher = more Renilla control light
Hit rule: 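Called a hit if the two-replicate mean z-score lies below -2 or above +3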
Meaning of the calls: active = hit: reporter lowered or raised; inactive = not a hit

target gene | amplicon | firefly Hh reporter signal, replicate 1 | firefly Hh reporter signal, replicate 2 | firefly Hh reporter signal, replicate 3 | Renilla reference signal, replicate 1 | Renilla reference signal, replicate 2 | outcome
Ttc30 | DRSC02818 | 1.96e5 | 80163 | – | 5137 | 7751 | inactive
CheB98a | DRSC14882 | 1.06e5 | 1.03e5 | – | 3960 | 3016 | inactive
Rcd6 | DRSC06054 | 1.11e5 | 63049 | – | 5472 | 3059 | inactive
LeuRS | DRSC00581 | 1.33e5 | 91293 | – | 3474 | 7165 | inactive
CG12519 | DRSC10311 | 1.05e5 | 1.26e5 | – | 3819 | 3040 | inactive
CG12909 | DRSC06224 | 61452 | 38517 | – | 1777 | 3219 | inactive
CG10345 | DRSC14138 | 1.02e5 | 91413 | – | 4551 | 3619 | inactive
Ube3a | DRSC10600 | 1.04e5 | 95164 | – | 5057 | 3756 | inactive
Tsp42En | DRSC06185 | 93264 | 81392 | – | 2264 | 6409 | inactive
Unc50 | DRSC16561 | 55783 | 91987 | – | 2379 | 2758 | inactive
CG14450 | DRSC11707 | 68757 | 88915 | – | 1986 | 2278 | inactive
Fkbp59 | DRSC03323 | 75142 | 55412 | – | 2172 | 6137 | inactive
Cyp4e2 | DRSC07371 | 71779 | 39197 | – | 2853 | 1941 | inactive
CG1428 | DRSC03708 | 84045 | 67763 | – | 2628 | 6833 | inactive
CG15019 | DRSC08473 | 45307 | 39143 | – | 4697 | 3672 | inactive
grass | DRSC15911 | 80932 | 95318 | – | 2744 | 2628 | inactive
Obp73a | DRSC09907 | 1.09e5 | – | – | 4610 | 3201 | inactive
Lst | DRSC07146 | 1.39e5 | 96033 | – | 3770 | 7136 | inactive
CG9743 | DRSC16552 | 70972 | 98611 | – | 2256 | 2387 | inactive
CG4576 | DRSC15604 | 77482 | 81801 | – | 2199 | 2300 | inactive
sax | DRSC07675 | 98945 | 53197 | – | 5568 | 2908 | inactive
inc | DRSC17954 | 91968 | 1.44e5 | – | 3819 | 5653 | inactive
inc | DRSC18512 | 1.23e5 | 1.09e5 | – | 2501 | 3009 | inactive
Pbp95 | DRSC15448 | 93228 | 88227 | – | 4098 | 2887 | inactive
CG31910 + snoRNA:Me28S-G2743 (retired record) | DRSC00946 | 4.75e5 | 1.76e5 | – | 23252 | 7024 | inactive
CG17944 | DRSC12572 | 1.03e5 | 1.26e5 | – | 4296 | 3751 | inactive
Kdm4B | DRSC06862 | 99788 | 72588 | – | 3956 | 1328 | inactive
BomBc1 | DRSC06501 | 1.20e5 | 54426 | – | 2441 | 3793 | inactive
wde | DRSC05955 | 88032 | 51175 | – | 4656 | 3047 | inactive
pho | DRSC17219 | 61896 | 2.22e5 | – | 2465 | 9059 | inactive
RhoGAP102A | DRSC17110 | 4.69e5 | 2.29e5 | – | 23472 | 4689 | inactive
RhoGAP102A | DRSC17145 | 74729 | 1.94e5 | – | 2517 | 7693 | inactive
lncRNA:CR43493 + l(1)G0196 | DRSC20628 | 93136 | 94213 | – | 2512 | 2544 | inactive
CG4686 | DRSC15622 | 7.71e5 | 1.41e5 | – | 37783 | 4611 | inactive
CG13226 | DRSC06346 | 77193 | 48908 | – | 2144 | 3344 | inactive
sun | DRSC20140 | 41096 | 1.38e5 | – | 1338 | 6087 | inactive
Elys | DRSC19571 | 87660 | 65034 | – | 2369 | 1808 | inactive
CG32988 | DRSC02692 | 84117 | 45725 | – | 1745 | 3684 | inactive
IFT43 | DRSC02892 | 60172 | 54537 | – | 2762 | 2202 | inactive
PK1-R | DRSC16577 | 76288 | 1.04e5 | – | 1490 | 2396 | inactive
mri | DRSC08259 | 1.09e5 | 52822 | – | 4119 | 2100 | inactive
CG14079 | DRSC10083 | 64721 | 1.03e5 | – | 2243 | 2897 | inactive
Pldn | DRSC10137 | 79781 | 66244 | 72904 | 5852 | 5606 | inactive
CG33642 | DRSC01325 | 7.70e5 | 2.62e5 | – | 40061 | 10853 | inactive
CG5986 | DRSC15931 | 86804 | 70960 | – | 4166 | 3143 | inactive
PolA1 | DRSC16640 | 87050 | 72263 | – | 4016 | 2807 | inactive
CG11291 | DRSC04097 | 92279 | 48486 | – | 2290 | 3632 | inactive
cpo | DRSC13265 | 52807 | 3.60e5 | – | 11795 | 8668 | inactive
cpo | DRSC13273 | 51770 | 1.43e5 | – | 11297 | 4044 | inactive
cpo | DRSC14503 | 2.80e5 | 20589 | – | 17705 | 891 | inactive
cpo | DRSC15327 | 2.28e5 | 16118 | – | 14243 | 697 | inactive
cpo | DRSC16926 | 2.70e5 | 36962 | – | 16304 | 1181 | inactive
Arr1 | DRSC01867 | 93053 | 55889 | – | 2496 | 4549 | inactive
XRCC1 | DRSC18729 | 1.25e5 | 66103 | – | 2945 | 1684 | inactive
PAN2 | DRSC07115 | 99184 | 69003 | – | 4820 | 3040 | inactive
CG8117 | DRSC20082 | 61365 | 1.34e5 | – | 1624 | 6896 | inactive
CG4610 | DRSC04477 | 1.62e5 | 96329 | – | 2579 | 8736 | inactive

Ordered by “Renilla reference signal, replicate 2” (high to low): 7 of the entries above
target gene | amplicon | firefly Hh reporter signal, replicate 1 | firefly Hh reporter signal, replicate 2 | firefly Hh reporter signal, replicate 3 | Renilla reference signal, replicate 1 | Renilla reference signal, replicate 2 | outcome
pho | DRSC17219 | 61896 | 2.22e5 | – | 2465 | 9059 | inactive
RhoGAP102A | DRSC17145 | 74729 | 1.94e5 | – | 2517 | 7693 | inactive
RhoGAP102A | DRSC17110 | 4.69e5 | 2.29e5 | – | 23472 | 4689 | inactive
CG4686 | DRSC15622 | 7.71e5 | 1.41e5 | – | 37783 | 4611 | inactive
CG13226 | DRSC06346 | 77193 | 48908 | – | 2144 | 3344 | inactive
wde | DRSC05955 | 88032 | 51175 | – | 4656 | 3047 | inactive
lncRNA:CR43493 + l(1)G0196 | DRSC20628 | 93136 | 94213 | – | 2512 | 2544 | inactive
